{"source": "PubChem BioAssay AID504834", "about": "(National Center for Advancing Translational Sciences (NCATS), 2011)", "note": "Screen size: about 320,000 compounds; about 22,000 (6.9%) were called active. Inconclusive means that the source gave no clear call. Such entries were picked first, then a sample of the others. Calls come from the whole dose curve; as a rule, active = well fitted inhibition curve with a large enough effect; inconclusive = small, poorly fitted or top-dose-only effect, or another doubt; inactive = no such curve, though single readings can be large or run the other way. Potencies beside an inconclusive call are fits to weak or partial responses and may not hold up. % is set by controls: 0 for no effect and ±100 for the full control effect; potency is the fitted concentration of half-maximal effect.", "data": [{"experiment": "Primary qHTS for delayed death inhibitors of the malarial parasite plastid, 96 hour incubation", "conditions": "P. falciparum luciferase reporter growth; series mostly up to 28.7 µM; activity change, negative = inhibition: at the top concentration", "procedure,_shortened": "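Erythrocytes infected with luciferase-expressing P. falciparum were dispensed at 2% hematocrit and 0.05% parasitemia (final), then incubated with compounds 96 hours at 37 C in 5% CO2. Luminescence after detection reagent addition reported growth.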", "values": [{"compound": "CC(C)Nc1nc(Cl)nc(Nc2ccccc2)n1", "Potency": "inconclusive: 10.4 µM [inhibitor, partial curve]"}, {"compound": "Cc1ccc(C(=O)N2CCCC(C(=O)Nc3cccc(-c4ccc(F)cc4)c3)C2)cn1", "note": "(centres undefined)", "activity change, negative = inhibition": "inactive: -3.01%"}, {"compound": "O=C1C(c2ccccc2)=[N+]([O-])c2ccccc21", "Potency": "active: 0.37 µM"}, {"compound": "CCCCN1CC(=O)N2[C@H]3c4ccc(OC)cc4OC[C@@H]3[C@H](c3ccccc3)[C@]2(C)C1=O", "Potency": "active: 7.38 µM"}, {"compound": "Cc1cc(C)c(NC(=S)NCCCSC2CCCCC2)c(C)c1", "activity change, negative = inhibition": "inactive: 8.65%"}, {"compound": "O=C(CN1CCN(C(=O)c2c(F)cccc2F)CC1)Nc1ccccc1C(F)(F)F", "activity change, negative = inhibition": "inactive: -7.76%"}, {"compound": "Cc1ccc(S(=O)(=O)NCc2ccc(N3CCN(C(=O)OC(C)(C)C)CC3)cc2)cc1", "Potency": "active: 4.15 µM"}, {"compound": "Cc1ccccc1CC(=O)Nc1cc(C(C)(C)C)on1", "Potency": "inconclusive: 18.5 µM [inhibitor, single point]"}, {"compound": "CC(=O)c1cc2c(cc1NC(=O)CN1CCCCCC1)OCO2", "Potency": "inconclusive: 18.5 µM [inhibitor, single point]"}, {"compound": "CC(=O)Nc1ccc(N(C(=O)c2cnccn2)C(C(=O)NC2CCCCC2)c2ccc(O)cc2)cc1", "note": "(centres undefined)", "activity change, negative = inhibition": "inactive: -5.97%"}, {"compound": "COc1cc(/C=N/NC(=O)c2ccc3c(c2)OCCO3)cc(Cl)c1O", "Potency": "inconclusive: 1.17 µM [inhibitor, partial curve, poor fit]"}, {"compound": "O=C(c1cc([N+](=O)[O-])ccc1Cl)N1c2ccccc2Sc2ccccc21", "Potency": "active: 2.08 µM"}, {"compound": "COc1cc(-c2noc(C)c2/C=C/c2cccc([N+](=O)[O-])c2)cc(OC)c1OC", "Potency": "inconclusive: 0.0657 µM [inhibitor, full curve, poor fit]"}, {"compound": "Cc1nn(CCCC(=O)NC(C)c2ccccc2)c(=O)c2nn(-c3ccccc3)c(C)c12", "note": "(centres undefined)", "Potency": "inconclusive: 10.4 µM [inhibitor, single point]"}, {"compound": "NCCCC[C@@H](C(=O)NCCCCCCCCCCC(=O)N1CCNCC1)n1cc(CCO)nn1", "Potency": "inconclusive: 18.5 µM [inhibitor, single point]"}, {"compound": "CCOC(=O)Cc1c(C)nc2c(-c3ccccc3)cnn2c1C", "activity change, negative = inhibition": "inactive: 25.1%"}, {"compound": "COC(=O)c1ccsc1NC(=O)CCc1ccccc1", "activity change, negative = inhibition": "inactive: 115%"}, {"compound": "Cn1c(C(=O)N2CCCC(C(=O)NCCCc3ccccc3)C2)cc2sccc21", "note": "(centres undefined)", "Potency": "inconclusive: 18.5 µM [inhibitor, single point]"}, {"compound": "O=C(Nc1nnc(-c2ccccc2F)s1)C1CCN(S(=O)(=O)c2ccc(Cl)cc2)CC1", "Potency": "inconclusive: 0.928 µM [inhibitor, partial curve, poor fit]"}, {"compound": "Cc1ccc(-c2nc(SCC(=O)NCC3CCCO3)c(-c3ccc(C)cc3)[nH]2)cc1", "note": "(centres undefined)", "Potency": "inconclusive: 13.1 µM [inhibitor, single point]"}, {"compound": "Cc1ccc(S(=O)(=O)N2CCCC2)cc1C(=O)NCCOc1ccccc1", "activity change, negative = inhibition": "inactive: -7.07%"}, {"compound": "Cn1cc(CN(Cc2ccccc2)C[C@@H]2CCC(=O)N2)c(-c2ccccc2F)n1", "Potency": "inconclusive: 11.7 µM [inhibitor, partial curve, poor fit]"}, {"compound": "Cc1nc(NC(=O)/C=C/c2ccc(C(C)(C)C)cc2)sc1C(=O)N(C)C", "activity change, negative = inhibition": "inactive: -3.28%"}, {"compound": "CC(C)(C)c1ccc(C(=O)n2cnc3ccccc32)cc1", "Potency": "inconclusive: 14.7 µM [inhibitor, single point]"}, {"compound": "COc1ccc(NS(=O)(=O)c2cccc(C(=O)N/N=C/c3cccs3)c2)cc1", "Potency": "inconclusive: 7.38 µM [inhibitor, partial curve, poor fit]"}, {"compound": "CC(C)COP(=O)(OCC(C)C)C(Nc1ccccc1)c1ccccc1", "note": "(centres undefined)", "Potency": "inconclusive: 9.28 µM [inhibitor, partial curve, poor fit]"}, {"compound": "COc1ccc(N/C(=N/c2nc(C)cc(C)n2)NC(=O)c2ccccc2)cc1", "activity change, negative = inhibition": "inactive: -13.2%"}, {"compound": "On1ccccc1=S", "Potency": "active: 0.586 µM"}, {"compound": "O=C(CC1C(=O)NCCN1Cc1cccc(F)c1)NC1CCC1", "note": "(centres undefined)", "Potency": "inconclusive: 16.5 µM [inhibitor, single point]"}, {"compound": "CCCCC/C(=N\\NC(=O)CCC(=O)NCc1ccccc1)c1ccccc1", "Potency": "inconclusive: 5.22 µM [inhibitor, partial curve, poor fit]"}, {"compound": "O=C(NCC(=O)N(Cc1cccs1)C(C(=O)NC1CCCCC1)c1ccco1)c1cccs1", "note": "(centres undefined)", "Potency": "inconclusive: 7.38 µM [inhibitor, partial curve, poor fit]"}, {"compound": "COc1cn(-c2ccccc2)nc1C(=O)NCc1ccc(C)cc1", "Potency": "active: 8.28 µM"}, {"compound": "COc1cccc(/C=N/Nc2nc(Nc3ccccc3)nc(-n3nc(C)cc3C)n2)c1O", "Potency": "inconclusive: 0.522 µM [inhibitor, full curve, poor fit]"}, {"compound": "Cc1noc(C)c1CSCC(=O)Nc1ccccc1N1CCCCC1", "Potency": "inconclusive: 9.28 µM [inhibitor, partial curve]"}, {"compound": "NC1=C(c2ccc(F)cc2)C(=O)CS1", "Potency": "inconclusive: 4.65 µM [inhibitor, partial curve, poor fit]"}, {"compound": "COc1cc(NC(=O)c2sc(C)nc2C)c(OC)cc1NC(=O)c1ccccc1", "activity change, negative = inhibition": "inactive: 23.3%"}, {"compound": "CCOC(=O)C(=CNc1ccc(NC2=NCC(C)(C)S2)cc1)C(=O)OCC", "Potency": "inconclusive: 11.7 µM [inhibitor, single point]"}, {"compound": "CCOc1ccccc1NC(=O)Cn1nnc(C(=O)NCCc2ccc(OC)c(OC)c2)c1N", "Potency": "inconclusive: 18.5 µM [inhibitor, single point]"}, {"compound": "CCn1cc(C(=O)OC)c(=O)c2cc(S(=O)(=O)N(C)C3CCCCC3)ccc21", "Potency": "inconclusive: 13.1 µM [inhibitor, single point]"}, {"compound": "COc1ccccc1N1CCN(C(=O)CSc2nc3ncnc(N)c3[nH]2)CC1", "Potency": "inconclusive: 11.7 µM [inhibitor, single point]"}, {"compound": "COc1nc(Nc2ccc([N+](=O)[O-])cc2)nc(NC2CCCCC2)n1", "activity change, negative = inhibition": "inactive: 1.24%"}, {"compound": "NNC(=O)C1CC1(c1ccccc1)c1ccccc1", "note": "(centres undefined)", "Potency": "inconclusive: 5.22 µM [inhibitor, partial curve, poor fit]"}, {"compound": "COc1ccc([C@]23Cc4ccccc4C(O2)C2=C(CC4(CCCCC4)OC2=O)O3)cc1", "Potency": "inconclusive: 0.0151 µM [inhibitor, full curve, poor fit]"}, {"compound": "COc1ccc(NCc2nnc(SCC(=O)Nc3ccccc3)n2C)cc1", "Potency": "inconclusive: 11.7 µM [inhibitor, partial curve, poor fit]"}]}]}
